PubChem BioAssay AID602196 – INSERM – 2012
This is one part, drawn at random, of about 23,000 reagents. 455 of all reagents (2%) count as active. 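Active includes both protection and sensitisation; some change values fall well beyond the stated -50 to +50 range.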 Not all columns of the deposit are shown. Not stated in the record: the amount of reagent.

Aim: 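Knock-downs that protect lung cancer cells from cisplatin or sensitise them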
Cell system: human A549 lung cancer cells
Reagent: siRNA pair against human genes
Time to read-out: 48 h transfection before cisplatin; time from cisplatin to read-out not stated
Conditions: cisplatin at a dose killing half of control-siRNA cells; exact dose and duration not given
Read-out: 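Shift in cisplatin death relative to control siRNA, from -50 (all cells die) to +50 (no cells die); siRNAs harmful on their own scored 0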
Direction: two-siRNA summed score (-2 to +2): higher = both siRNAs protect from cisplatin killing; -2 means both sensitise; mean protection from cisplatin (shift in death) and protection from cisplatin (shift in death), siRNA C: higher = protection from cisplatin killing
Call rule: 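siRNAs harmful alone (LDH or WST-1) get 0; others get +1 for less and -1 for more cisplatin killing; genes are active when the two siRNAs give the same sign, summing to ±2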
Calls: active = both siRNAs shift cisplatin killing the same way; inactive = no consistent shift, or siRNA harmful alone

The opening 2 entries as a preview:
target	two-siRNA summed score (-2 to +2)	mean protection from cisplatin (shift in death) (%)	protection from cisplatin (shift in death), siRNA C (%)	activity call
ARHGAP44	0	2.1	4.1	inactive
IRF3	0	6	5.1	inactive

Results, repeating the preview:
target	two-siRNA summed score (-2 to +2)	mean protection from cisplatin (shift in death) (%)	protection from cisplatin (shift in death), siRNA C (%)	activity call
ARHGAP44	0	2.1	4.1	inactive
IRF3	0	6	5.1	inactive
KLHL1	0	-0.4	6.3	inactive
LOC442566	1	4.4	-3.3	inactive
FBXL8	-1	-26.1	-27.2	inactive
SOX15	-1	-8.8	0.4	inactive
RMND5A	0	4.1	10.6	inactive
LOC440192	0	8.9	12.1	inactive
CAMLG	0	1.6	0.3	inactive
PORCN	0	1.3	2.7	inactive
JAK2	-1	-12.7	3	inactive
C5orf24	1	2	12.6	inactive
MS4A13	0	4.9	0.2	inactive
TSPEAR	0	1.7	5	inactive
ARHGAP22	0	8.6	14.1	inactive
IL12B-AS1	1	20.8	23.4	inactive
FAM74A1	0	6.5	4.5	inactive
FCN2	0	-6.5	-4	inactive
CTDNEP1	0	-4.7	10.5	inactive
GALNT2	-1	-6	3.2	inactive
EIF2AK4	1	4.1	12.8	inactive
FLJ34306	0	8.6	10.2	inactive
OLFML1	1	18.4	17.7	inactive
